± gives the standard deviation of the averaged measurements. This data set is noisy: repeats of one test often differ as much as different tests do.

The chains behind the UniProt entries cited, without tags or fusion partners. Where a name states a change or a piece, a line headed by the entry shows the natural chain unless it says otherwise.
UniProt Q9Y2H2: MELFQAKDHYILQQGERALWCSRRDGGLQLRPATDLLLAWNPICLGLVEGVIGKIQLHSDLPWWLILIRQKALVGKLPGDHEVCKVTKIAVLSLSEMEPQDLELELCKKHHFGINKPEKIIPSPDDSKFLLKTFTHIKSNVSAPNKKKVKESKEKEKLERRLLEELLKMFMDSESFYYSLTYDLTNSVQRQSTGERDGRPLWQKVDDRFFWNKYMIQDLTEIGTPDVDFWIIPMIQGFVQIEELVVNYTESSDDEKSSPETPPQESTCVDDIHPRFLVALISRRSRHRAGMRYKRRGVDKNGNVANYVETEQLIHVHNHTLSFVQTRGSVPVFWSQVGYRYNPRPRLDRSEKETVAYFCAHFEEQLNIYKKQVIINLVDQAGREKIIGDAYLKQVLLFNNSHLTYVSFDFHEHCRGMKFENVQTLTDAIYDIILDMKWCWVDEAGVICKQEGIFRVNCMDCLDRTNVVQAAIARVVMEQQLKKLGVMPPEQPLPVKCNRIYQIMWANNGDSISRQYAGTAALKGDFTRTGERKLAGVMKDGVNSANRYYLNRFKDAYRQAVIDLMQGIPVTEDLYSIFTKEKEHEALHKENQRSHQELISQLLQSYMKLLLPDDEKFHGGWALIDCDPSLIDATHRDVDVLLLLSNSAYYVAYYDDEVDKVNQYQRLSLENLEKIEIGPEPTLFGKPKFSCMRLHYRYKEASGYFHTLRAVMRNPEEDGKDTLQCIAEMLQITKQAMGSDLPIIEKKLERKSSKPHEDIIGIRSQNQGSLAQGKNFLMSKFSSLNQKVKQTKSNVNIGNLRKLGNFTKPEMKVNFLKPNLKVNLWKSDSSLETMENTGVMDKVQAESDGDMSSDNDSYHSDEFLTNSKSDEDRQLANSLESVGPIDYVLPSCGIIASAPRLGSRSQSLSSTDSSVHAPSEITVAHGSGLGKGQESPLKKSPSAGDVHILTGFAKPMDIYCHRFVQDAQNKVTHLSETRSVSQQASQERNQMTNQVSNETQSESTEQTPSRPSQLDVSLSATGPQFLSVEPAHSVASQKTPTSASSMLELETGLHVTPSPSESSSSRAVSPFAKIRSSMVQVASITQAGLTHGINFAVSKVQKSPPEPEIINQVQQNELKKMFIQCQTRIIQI
UniProt Q9NQX3: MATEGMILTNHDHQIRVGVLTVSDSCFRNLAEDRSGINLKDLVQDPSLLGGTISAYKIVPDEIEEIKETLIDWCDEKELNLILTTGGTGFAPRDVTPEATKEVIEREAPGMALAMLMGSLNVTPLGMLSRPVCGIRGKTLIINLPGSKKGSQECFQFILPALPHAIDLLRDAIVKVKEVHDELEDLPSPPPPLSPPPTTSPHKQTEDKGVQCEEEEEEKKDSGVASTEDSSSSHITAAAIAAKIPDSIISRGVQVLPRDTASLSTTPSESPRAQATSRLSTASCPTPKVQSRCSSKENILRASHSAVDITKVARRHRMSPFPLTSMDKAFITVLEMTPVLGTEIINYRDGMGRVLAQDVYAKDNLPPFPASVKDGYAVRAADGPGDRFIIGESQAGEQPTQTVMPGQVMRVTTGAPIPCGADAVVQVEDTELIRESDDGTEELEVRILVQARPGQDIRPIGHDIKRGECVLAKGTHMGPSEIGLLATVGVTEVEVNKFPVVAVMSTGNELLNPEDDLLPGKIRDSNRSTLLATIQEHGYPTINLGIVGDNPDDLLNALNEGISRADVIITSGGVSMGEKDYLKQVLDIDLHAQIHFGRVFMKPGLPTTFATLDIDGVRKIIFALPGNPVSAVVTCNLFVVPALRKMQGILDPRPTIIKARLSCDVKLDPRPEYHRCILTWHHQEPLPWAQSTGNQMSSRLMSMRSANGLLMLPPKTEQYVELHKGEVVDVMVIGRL
UniProt Q92734, whole entry, looked up: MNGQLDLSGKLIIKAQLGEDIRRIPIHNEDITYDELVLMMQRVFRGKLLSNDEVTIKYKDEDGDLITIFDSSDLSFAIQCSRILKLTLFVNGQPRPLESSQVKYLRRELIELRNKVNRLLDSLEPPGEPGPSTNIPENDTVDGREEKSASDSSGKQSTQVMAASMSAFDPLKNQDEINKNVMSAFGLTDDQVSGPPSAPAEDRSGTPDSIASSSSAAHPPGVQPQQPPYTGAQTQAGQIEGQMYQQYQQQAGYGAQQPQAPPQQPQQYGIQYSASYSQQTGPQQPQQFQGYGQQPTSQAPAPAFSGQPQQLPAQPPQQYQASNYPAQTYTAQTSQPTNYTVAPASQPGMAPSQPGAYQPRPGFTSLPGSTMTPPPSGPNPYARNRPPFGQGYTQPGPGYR
UniProt O75396: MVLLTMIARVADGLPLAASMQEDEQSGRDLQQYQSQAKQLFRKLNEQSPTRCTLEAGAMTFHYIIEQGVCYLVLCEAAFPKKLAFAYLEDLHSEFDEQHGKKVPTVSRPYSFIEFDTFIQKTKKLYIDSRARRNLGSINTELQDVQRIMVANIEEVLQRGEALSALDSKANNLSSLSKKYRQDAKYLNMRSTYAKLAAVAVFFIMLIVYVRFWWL
UniProt Q9C0C2: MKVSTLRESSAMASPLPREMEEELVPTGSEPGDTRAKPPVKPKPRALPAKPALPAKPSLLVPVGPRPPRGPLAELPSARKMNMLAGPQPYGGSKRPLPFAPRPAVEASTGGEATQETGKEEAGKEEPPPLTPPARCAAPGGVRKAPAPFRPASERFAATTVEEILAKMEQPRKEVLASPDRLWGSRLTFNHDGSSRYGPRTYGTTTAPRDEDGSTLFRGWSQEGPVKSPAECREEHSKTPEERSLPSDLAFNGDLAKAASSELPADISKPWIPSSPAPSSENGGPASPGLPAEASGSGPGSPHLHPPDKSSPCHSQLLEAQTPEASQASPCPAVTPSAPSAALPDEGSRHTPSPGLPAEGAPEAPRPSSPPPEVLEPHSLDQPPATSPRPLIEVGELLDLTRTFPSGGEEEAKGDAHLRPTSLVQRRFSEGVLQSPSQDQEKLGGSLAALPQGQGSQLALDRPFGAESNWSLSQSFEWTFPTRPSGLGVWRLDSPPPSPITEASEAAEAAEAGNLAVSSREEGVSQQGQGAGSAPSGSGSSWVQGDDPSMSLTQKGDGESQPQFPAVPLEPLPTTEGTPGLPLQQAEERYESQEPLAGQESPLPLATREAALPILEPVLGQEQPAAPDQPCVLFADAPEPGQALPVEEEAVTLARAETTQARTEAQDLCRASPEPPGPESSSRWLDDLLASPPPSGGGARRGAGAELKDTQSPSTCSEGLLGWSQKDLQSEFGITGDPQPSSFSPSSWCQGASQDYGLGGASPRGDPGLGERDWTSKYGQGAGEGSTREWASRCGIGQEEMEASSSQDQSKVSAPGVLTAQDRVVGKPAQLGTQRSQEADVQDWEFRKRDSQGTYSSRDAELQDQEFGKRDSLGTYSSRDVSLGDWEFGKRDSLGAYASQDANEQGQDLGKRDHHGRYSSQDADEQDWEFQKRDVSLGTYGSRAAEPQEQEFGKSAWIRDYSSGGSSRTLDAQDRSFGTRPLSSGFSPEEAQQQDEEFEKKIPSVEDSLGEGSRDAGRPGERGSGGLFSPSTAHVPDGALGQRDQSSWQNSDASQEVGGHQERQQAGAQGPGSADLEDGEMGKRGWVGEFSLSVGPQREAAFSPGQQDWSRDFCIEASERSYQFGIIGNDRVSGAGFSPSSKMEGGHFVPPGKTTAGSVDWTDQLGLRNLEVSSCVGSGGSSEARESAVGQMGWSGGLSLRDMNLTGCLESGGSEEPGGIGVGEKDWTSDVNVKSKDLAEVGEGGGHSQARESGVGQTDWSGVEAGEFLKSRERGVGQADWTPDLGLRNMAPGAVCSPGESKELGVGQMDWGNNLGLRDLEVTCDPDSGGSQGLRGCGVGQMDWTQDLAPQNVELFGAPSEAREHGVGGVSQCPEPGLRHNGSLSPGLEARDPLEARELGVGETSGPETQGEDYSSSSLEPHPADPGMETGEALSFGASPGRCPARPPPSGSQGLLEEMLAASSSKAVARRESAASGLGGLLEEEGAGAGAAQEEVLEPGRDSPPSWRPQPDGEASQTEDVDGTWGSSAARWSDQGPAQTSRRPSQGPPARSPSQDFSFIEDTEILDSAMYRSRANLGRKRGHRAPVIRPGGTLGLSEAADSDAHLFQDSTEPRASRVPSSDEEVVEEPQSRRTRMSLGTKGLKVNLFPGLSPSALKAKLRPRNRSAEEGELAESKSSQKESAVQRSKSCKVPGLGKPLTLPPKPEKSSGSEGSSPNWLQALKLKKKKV
UniProt Q9Y6D6: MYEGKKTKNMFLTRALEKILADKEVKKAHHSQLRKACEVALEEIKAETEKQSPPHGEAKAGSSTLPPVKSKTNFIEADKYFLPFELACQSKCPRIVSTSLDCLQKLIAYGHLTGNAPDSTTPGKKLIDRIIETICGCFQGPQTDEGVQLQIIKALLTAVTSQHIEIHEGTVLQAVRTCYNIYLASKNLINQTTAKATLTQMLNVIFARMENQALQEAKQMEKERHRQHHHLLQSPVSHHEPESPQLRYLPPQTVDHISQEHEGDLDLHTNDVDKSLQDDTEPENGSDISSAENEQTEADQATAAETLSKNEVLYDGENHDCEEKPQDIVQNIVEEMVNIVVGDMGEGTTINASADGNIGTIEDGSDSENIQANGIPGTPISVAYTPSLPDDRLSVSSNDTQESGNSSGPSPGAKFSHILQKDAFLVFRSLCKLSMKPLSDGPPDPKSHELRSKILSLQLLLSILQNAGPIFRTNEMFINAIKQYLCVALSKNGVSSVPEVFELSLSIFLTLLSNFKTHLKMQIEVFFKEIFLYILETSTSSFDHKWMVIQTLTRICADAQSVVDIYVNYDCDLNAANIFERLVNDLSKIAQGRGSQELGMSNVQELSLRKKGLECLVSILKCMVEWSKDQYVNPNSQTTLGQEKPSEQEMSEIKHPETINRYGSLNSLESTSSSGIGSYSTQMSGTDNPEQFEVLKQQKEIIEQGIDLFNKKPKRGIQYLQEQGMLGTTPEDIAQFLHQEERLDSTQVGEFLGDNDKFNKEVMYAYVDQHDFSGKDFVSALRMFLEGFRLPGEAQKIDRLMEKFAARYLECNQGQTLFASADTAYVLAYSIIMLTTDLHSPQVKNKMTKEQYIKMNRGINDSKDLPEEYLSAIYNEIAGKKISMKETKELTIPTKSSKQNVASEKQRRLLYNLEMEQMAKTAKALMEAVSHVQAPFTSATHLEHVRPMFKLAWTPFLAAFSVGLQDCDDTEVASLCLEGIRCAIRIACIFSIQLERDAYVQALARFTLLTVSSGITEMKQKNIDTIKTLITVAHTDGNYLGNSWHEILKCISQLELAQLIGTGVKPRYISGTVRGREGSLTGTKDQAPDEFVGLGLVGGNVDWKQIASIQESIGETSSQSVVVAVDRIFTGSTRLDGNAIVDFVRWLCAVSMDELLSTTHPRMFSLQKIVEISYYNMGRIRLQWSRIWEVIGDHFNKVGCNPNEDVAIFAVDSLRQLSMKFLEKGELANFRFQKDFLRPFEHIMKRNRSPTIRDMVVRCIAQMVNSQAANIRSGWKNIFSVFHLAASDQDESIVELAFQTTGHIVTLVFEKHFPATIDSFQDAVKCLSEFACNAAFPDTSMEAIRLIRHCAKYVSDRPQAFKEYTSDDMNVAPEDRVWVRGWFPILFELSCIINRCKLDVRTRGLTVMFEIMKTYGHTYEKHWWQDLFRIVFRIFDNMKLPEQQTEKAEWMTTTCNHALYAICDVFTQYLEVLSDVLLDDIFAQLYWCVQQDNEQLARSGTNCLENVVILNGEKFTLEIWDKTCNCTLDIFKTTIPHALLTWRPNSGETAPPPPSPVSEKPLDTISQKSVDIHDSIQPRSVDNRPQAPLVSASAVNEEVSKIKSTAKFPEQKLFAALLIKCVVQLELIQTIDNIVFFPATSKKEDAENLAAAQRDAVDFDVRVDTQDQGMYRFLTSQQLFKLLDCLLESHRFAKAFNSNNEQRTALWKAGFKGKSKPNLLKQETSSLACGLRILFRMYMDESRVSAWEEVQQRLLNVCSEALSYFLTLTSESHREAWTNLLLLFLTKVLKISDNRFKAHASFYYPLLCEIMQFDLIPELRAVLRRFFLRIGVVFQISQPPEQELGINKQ
UniProt Q96FW1, whole entry: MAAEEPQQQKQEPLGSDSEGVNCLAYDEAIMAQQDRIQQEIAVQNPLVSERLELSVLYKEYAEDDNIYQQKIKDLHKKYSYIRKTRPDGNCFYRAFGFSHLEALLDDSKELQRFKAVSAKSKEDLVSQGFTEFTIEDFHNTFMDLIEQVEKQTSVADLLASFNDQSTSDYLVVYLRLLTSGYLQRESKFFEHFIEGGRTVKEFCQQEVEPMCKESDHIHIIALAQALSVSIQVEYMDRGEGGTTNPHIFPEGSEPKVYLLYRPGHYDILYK

Compound in this assay: CC[C@@H](C)Nc1cc(C(=O)N[C@H]2C[C@H]3CC[C@@H](C2)N3c2ccc(C(=O)C3CC3)cn2)c(C)cc1C(N)=O [XL888]
Put plainly: phosphopeptide melting temperature shift (XL888 minus DMSO); higher = stabilised by drug treatment. As to conditions: 100 µM; treatment time 2 h; layout: intact cells; SK-Mel 28. The procedure:
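Phospho-TPP in intact SK-Mel 28 cells treated with 100 uM XL888 or DMSO for 2 h, heated at 10 temperatures (37-67 C) for 3 min, soluble fraction TMT10plex-labelled and TiO2 phospho-enriched. Melting curves were fitted per phosphopeptide; the value is the melting point difference (drug minus vehicle) in each of two biological replicates.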
Take “RAD9A phosphosite_272 (phosphosite position: 272) (UniProt Q99638)”: the “phosphopeptide melting temperature shift” value is -2.27 °C.

As to “UniProt Q99543-2_phosphosite_60 (phosphosite position: 60)”, the “phosphopeptide melting temperature shift” value was determined as 0.576 ± 0.23 °C.

Take “UniProt P21127-9_phosphosite_31 (phosphosite position: 31)”: the “phosphopeptide melting temperature shift” value turned out to be 5.86 °C.

As for “MYO18A phosphosite_2041 (phosphosite position: 2041) (UniProt Q92614)”, the “phosphopeptide melting temperature shift” value worked out at 0.721 ± 0.55 °C.

With “UniProt O00264-2_phosphosite_129 (phosphosite position: 129)”, the “phosphopeptide melting temperature shift” value is 2.56 °C.

With “INPP5F phosphosite_830 (phosphosite position: 830) (UniProt Q9Y2H2)”, the “phosphopeptide melting temperature shift” value is 2.96 °C.

Take “UniProt Q9Y2J0-2_phosphosite_689 (phosphosite position: 689)”: the “phosphopeptide melting temperature shift” value was 5.2 ± 0.78 °C.

“GPHN phosphosite_188 (phosphosite position: 188) (UniProt Q9NQX3)”: the “phosphopeptide melting temperature shift” value was 0.587 ± 2.6 °C.

Turning to “UniProt Q92734-4_phosphosite_197 (phosphosite position: 197)”, the “phosphopeptide melting temperature shift” value is -3.59 °C.

Turning to “UniProt Q8TDJ6-2_phosphosite_1763 (phosphosite position: 1763)”, the “phosphopeptide melting temperature shift” value was -1.05 °C.

Turning to “UniProt Q5TAQ9-2_phosphosite_99 (phosphosite position: 99)”, the “phosphopeptide melting temperature shift” value was found to be 0.866 ± 1.4 °C.

Consider “SRRM1 phosphosite_452 (phosphosite position: 452) (UniProt Q8IYB3)”, for which the “phosphopeptide melting temperature shift” value amounted to 1.25 ± 2 °C.

Regarding “UniProt O75396_phosphosite_137 (phosphosite position: 137)”, the “phosphopeptide melting temperature shift” value was -0.847 °C.

For the target “PPFIBP2 phosphosite_329 (phosphosite position: 329) (UniProt Q8ND30)”, the “phosphopeptide melting temperature shift” value worked out at 4.05 °C.

As to “TNKS1BP1 phosphosite_1620 (phosphosite position: 1620) (UniProt Q9C0C2)”, the “phosphopeptide melting temperature shift” value worked out at 4.17 °C.

For “UniProt Q8WWI1-3_phosphosite_533 (phosphosite position: 533)”, the “phosphopeptide melting temperature shift” value was determined as 0.798 ± 1.2 °C.

For “TNS3 phosphosite_776 (phosphosite position: 776) (UniProt Q68CZ2)”, the “phosphopeptide melting temperature shift” value turned out to be 0.423 °C.

On to “CCDC86 phosphosite_91 (phosphosite position: 91) (UniProt Q9H6F5)”, for which the “phosphopeptide melting temperature shift” value was -0.665 °C.

For “MCM3 phosphosite_728 (phosphosite position: 728) (UniProt P25205)”, the “phosphopeptide melting temperature shift” value was determined as 0.892 ± 1.3 °C.

With “PARP4 phosphosite_1335 (phosphosite position: 1335) (UniProt Q9UKK3)”, the “phosphopeptide melting temperature shift” value amounted to 0.555 °C.

Consider “MAP1B phosphosite_1881 (phosphosite position: 1881) (UniProt P46821)”, for which the “phosphopeptide melting temperature shift” value amounted to 2.54 °C.

As for “DOCK5 phosphosite_1766 (phosphosite position: 1766) (UniProt Q9H7D0)”, the “phosphopeptide melting temperature shift” value is -0.0603 °C.

For the target “ARFGEF1 phosphosite_52 (phosphosite position: 52) (UniProt Q9Y6D6)”, the “phosphopeptide melting temperature shift” value is 1.07 °C.

Turning to “UniProt O60343-2_phosphosite_673 (phosphosite position: 673)”, the “phosphopeptide melting temperature shift” value is 1.77 °C.

On to “OTUB1 phosphosite_16 (phosphosite position: 16) (UniProt Q96FW1)”, for which the “phosphopeptide melting temperature shift” value came out at 1.06 °C.

On to “UniProt Q9H6T3-2_phosphosite_116 (phosphosite position: 116)”, for which the “phosphopeptide melting temperature shift” value is -0.995 °C.

With “PPP1R3D phosphosite_46 (phosphosite position: 46) (UniProt O95685)”, the “phosphopeptide melting temperature shift” value is 0.311 °C.
